No constants are given. Whether binding was seen depends on the method and setting. In cells and extracts the contact can be indirect. Here binding means that the protein was enriched with, or labelled near, the bait; the list need not be complete. Where a sequence is shown, tags or fusion partners need not be part of it.
Target: T1, HA-TBC1D15 wild type (UniProt Q8TC07)
T1 sequence: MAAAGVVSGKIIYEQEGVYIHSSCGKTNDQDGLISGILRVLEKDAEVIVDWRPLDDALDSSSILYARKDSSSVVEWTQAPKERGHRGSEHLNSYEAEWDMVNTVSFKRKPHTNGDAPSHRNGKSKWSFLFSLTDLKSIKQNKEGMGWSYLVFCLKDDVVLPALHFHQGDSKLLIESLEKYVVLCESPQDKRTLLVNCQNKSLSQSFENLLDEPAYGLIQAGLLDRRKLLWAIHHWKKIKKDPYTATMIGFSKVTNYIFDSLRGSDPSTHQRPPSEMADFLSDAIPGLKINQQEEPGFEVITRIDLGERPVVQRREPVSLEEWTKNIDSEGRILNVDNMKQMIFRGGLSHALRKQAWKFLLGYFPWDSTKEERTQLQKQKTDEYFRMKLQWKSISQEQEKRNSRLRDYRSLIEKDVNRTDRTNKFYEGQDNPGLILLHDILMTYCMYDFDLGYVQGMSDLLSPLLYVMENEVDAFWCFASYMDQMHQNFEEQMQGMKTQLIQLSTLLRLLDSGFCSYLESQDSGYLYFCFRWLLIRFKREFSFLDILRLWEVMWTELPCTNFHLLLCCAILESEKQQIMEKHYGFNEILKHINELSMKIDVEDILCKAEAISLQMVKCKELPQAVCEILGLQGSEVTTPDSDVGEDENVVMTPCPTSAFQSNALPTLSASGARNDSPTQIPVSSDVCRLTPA
Experiment: affinity purification with mass spectrometry

B1: KIF22 (endogenous) (protein, UniProt Q14807 1-665)
chain: MAAGGSTQQRRREMAAASAAAISGAGRCRLSKIGATRRPPPARVRVAVRLRPFVDGTAGASDPPCVRGMDSCSLEIANWRNHQETLKYQFDAFYGERSTQQDIYAGSVQPILRHLLEGQNASVLAYGPTGAGKTHTMLGSPEQPGVIPRALMDLLQLTREEGAEGRPWALSVTMSYLEIYQEKVLDLLDPASGDLVIREDCRGNILIPGLSQKPISSFADFERHFLPASRNRTVGATRLNQRSSRSHAVLLVKVDQRERLAPFRQREGKLYLIDLAGSEDNRRTGNKGLRLKESGAINTSLFVLGKVVDALNQGLPRVPYRDSKLTRLLQDSLGGSAHSILIANIAPERRFYLDTVSALNFAARSKEVINRPFTNESLQPHALGPVKLSQKELLGPPEAKRARGPEEEEIGSPEPMAAPASASQKLSPLQKLSSMDPAMLERLLSLDRLLASQGSQGAPLLSTPKRERMVLMKTVEEKDLEIERLKTKQKELEAKMLAQKAEEKENHCPTMLRPLSHRTVTGAKPLKKAVVMPLQLIQEQAASPNAEIHILKNKGRKRKLESLDALEPEEKAEDCWELQISPELLAHGRQKILDLLNEGSARDLRSLQRIGPKKAQLIVGWRELHGPFSQVEDLERVEGITGKQMESFLKANILGLAAGQRCGAS
Q: How did the binding turn out when B1 was run?
A: Its binding is “binds”.

From paper doi:10.1101/2022.12.14.520480
